Results are given in words; binding and its absence hold for the method and conditions named. Some binding calls cover weakened binding; strength is not graded here. Each block holds one molecule with its values, some of them ahead of it.
Key:
[1] = molecular target: BMPR2 kinase domain (BMPR2^KD, residues 189-529) (human) (UniProt Q13873); test: SEC-SAXS; kinase domains alone or in complex at 100 µM in 20 mM HEPES pH 8.0, 100 mM NaCl, 0.1 mM TCEP; twin-tandem Superdex 200 3.2/30 GL columns, room temperature; both purified
[2] = molecular target: BMPR2 kinase domain (BMPR2^KD, residues 189-529) (human) (UniProt Q13873); test: SEC; Superdex 200 Increase 10/300 GL; kinase domains alone or as a stoichiometric mixture; also run in buffers with increasing NaCl; both purified
[3] = molecular target: ALK2 kinase domain (ALK2^KD, residues 201-499) (human) (UniProt Q04771); test: SEC-SAXS; kinase domains alone or in complex at 100 µM in 20 mM HEPES pH 8.0, 100 mM NaCl, 0.1 mM TCEP; twin-tandem Superdex 200 3.2/30 GL columns, room temperature; both purified
[4] = molecular target: BMPR2^KD-D485G (BMPR2 kinase domain with the PAH mutation D485G) (human) (UniProt Q13873); test: SEC; Superdex 200 Increase 10/300 GL; kinase domains alone or as a stoichiometric mixture; also run in buffers with increasing NaCl; both purified
[5] = molecular target: BMPR2^KD-EDE (BMPR2 kinase domain E464R/D487R/E489R) (human) (UniProt Q13873); test: as above
[6] = molecular target: BMPR2^KD-EED (BMPR2 kinase domain E478R/E481R/D482R) (human) (UniProt Q13873); test: as above
[7] = molecular target: ALK2 kinase domain (ALK2^KD, residues 201-499) (human) (UniProt Q04771); test: as above
[8] = molecular target: BMPR2 kinase domain (BMPR2^KD, residues 189-529) (human) (UniProt Q13873); test: as above; remark: listed apart in the source
[9] = molecular target: BMPR2 kinase domain (BMPR2^KD, residues 189-529) (human) (UniProt Q13873); test: HDX-MS; each kinase alone against an equimolar solution of both; 6.3 µM kinase, 96% D2O, 50 mM HEPES pD 7.5, 50 mM KCl, 5 mM DTT, 23 °C; 15, 180, 900 s; pepsin digestion; both purified

The chains behind the UniProt entries cited, without tags or fusion partners. Where a name states a change or a piece, a line headed by the entry shows the natural chain unless it says otherwise. A line that says so, or that is headed by a name, gives the form on record, which may keep a tag or linker. Residues count along the entry.
BMPR2 kinase domain (BMPR2^KD, residues 189-529) (Q13873, residues 189-529): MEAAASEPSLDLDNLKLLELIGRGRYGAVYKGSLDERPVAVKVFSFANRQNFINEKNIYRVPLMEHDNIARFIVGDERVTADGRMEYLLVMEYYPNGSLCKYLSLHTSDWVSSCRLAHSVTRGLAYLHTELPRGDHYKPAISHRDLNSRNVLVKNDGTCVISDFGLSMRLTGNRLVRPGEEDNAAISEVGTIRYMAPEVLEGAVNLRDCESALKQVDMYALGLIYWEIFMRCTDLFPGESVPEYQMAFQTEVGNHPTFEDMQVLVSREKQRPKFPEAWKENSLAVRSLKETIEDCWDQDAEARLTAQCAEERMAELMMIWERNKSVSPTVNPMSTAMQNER
BMPR2^KD-D485G (BMPR2 kinase domain with the PAH mutation D485G) (Q13873, form named): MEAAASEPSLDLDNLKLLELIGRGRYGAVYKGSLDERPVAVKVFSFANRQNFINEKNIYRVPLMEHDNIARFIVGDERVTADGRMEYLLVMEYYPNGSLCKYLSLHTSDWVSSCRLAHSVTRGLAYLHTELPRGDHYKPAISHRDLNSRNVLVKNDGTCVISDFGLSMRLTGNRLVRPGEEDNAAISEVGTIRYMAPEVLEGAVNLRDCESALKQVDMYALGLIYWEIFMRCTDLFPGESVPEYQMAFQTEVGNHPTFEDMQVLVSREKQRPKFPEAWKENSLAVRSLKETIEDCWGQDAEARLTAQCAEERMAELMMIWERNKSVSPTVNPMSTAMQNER
BMPR2^KD-EDE (BMPR2 kinase domain E464R/D487R/E489R) (Q13873, form named): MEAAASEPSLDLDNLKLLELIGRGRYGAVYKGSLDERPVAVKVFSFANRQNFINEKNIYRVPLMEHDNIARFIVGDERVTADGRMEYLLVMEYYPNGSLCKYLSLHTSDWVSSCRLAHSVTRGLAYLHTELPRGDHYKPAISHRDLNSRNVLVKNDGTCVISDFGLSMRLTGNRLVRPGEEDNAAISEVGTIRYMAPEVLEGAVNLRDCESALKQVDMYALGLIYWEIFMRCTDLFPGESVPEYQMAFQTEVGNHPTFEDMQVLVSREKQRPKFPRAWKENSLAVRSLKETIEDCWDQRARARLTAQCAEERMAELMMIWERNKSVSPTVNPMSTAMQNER
BMPR2^KD-EED (BMPR2 kinase domain E478R/E481R/D482R) (Q13873, form named): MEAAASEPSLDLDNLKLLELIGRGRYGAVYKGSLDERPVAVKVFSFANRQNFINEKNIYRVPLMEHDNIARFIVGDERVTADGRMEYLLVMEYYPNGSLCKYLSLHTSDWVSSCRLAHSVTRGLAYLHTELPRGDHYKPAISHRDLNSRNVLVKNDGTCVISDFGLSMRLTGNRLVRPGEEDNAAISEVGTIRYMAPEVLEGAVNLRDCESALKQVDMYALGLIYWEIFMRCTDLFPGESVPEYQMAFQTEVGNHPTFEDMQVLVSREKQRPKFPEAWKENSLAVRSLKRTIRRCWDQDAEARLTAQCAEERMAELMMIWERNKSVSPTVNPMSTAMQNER

binding [1]: no binding (tested: 100 µM) | binding [2]: no binding
Molecule: BMPR2 kinase domain (BMPR2^KD, residues 189-529) (from UniProt Q13873 189-529) (domain or fragment)

binding [3]: no binding (tested: 100 µM) | binding [4]: no binding | binding [5]: no binding | binding [6]: binds weakly | binding [7]: no binding
B1: ALK2 kinase domain (ALK2^KD, residues 201-499) (domain or fragment, human, UniProt Q04771 201-499, looked up)
chain: QRTVARQITLLECVGKGRYGEVWRGSWQGENVAVKIFSSRDEKSWFRETELYNTVMLRHENILGFIASDMTSRHSSTQLWLITHYHEMGSLYDYLQLTTLDTVSCLRIVLSIASGLAHLHIEIFGTQGKPAIAHRDLKSKNILVKKNGQCCIADLGLAVMHSQSTNQLDVGNNPRVGTKRYMAPEVLDETIQVDCFDSYKRVDIWAFGLVLWEVARRMVSNGIVEDYKPPFYDVVPNDPSFEDMRKVVCVDQQRPNIPNRWFSDPTLTSLAKLMKECWYQNPSARLTALRIKKTLTKID
notes: ALK2 (ACVR1), type I BMP receptor, kinase domain without the GS domain, residues 201-499; TEV site between His tag and kinase domain; also called ACVR1; ActRIA; source: SF9 insect cells, purified (Ni-NTA, TEV cleavage, SEC); not shown: His tag, N-terminal, cleaved

binding [8]: no binding
B2: ALK2^KD-KK (ALK2 kinase domain K492A/K493A) (domain or fragment, UniProt Q04771 201-499)
chain: QRTVARQITLLECVGKGRYGEVWRGSWQGENVAVKIFSSRDEKSWFRETELYNTVMLRHENILGFIASDMTSRHSSTQLWLITHYHEMGSLYDYLQLTTLDTVSCLRIVLSIASGLAHLHIEIFGTQGKPAIAHRDLKSKNILVKKNGQCCIADLGLAVMHSQSTNQLDVGNNPRVGTKRYMAPEVLDETIQVDCFDSYKRVDIWAFGLVLWEVARRMVSNGIVEDYKPPFYDVVPNDPSFEDMRKVVCVDQQRPNIPNRWFSDPTLTSLAKLMKECWYQNPSARLTALRIAATLTKID

binding [8]: no binding
B3: ALK2^KD-K493A (ALK2 kinase domain K493A) (domain or fragment, UniProt Q04771 201-499)
chain: QRTVARQITLLECVGKGRYGEVWRGSWQGENVAVKIFSSRDEKSWFRETELYNTVMLRHENILGFIASDMTSRHSSTQLWLITHYHEMGSLYDYLQLTTLDTVSCLRIVLSIASGLAHLHIEIFGTQGKPAIAHRDLKSKNILVKKNGQCCIADLGLAVMHSQSTNQLDVGNNPRVGTKRYMAPEVLDETIQVDCFDSYKRVDIWAFGLVLWEVARRMVSNGIVEDYKPPFYDVVPNDPSFEDMRKVVCVDQQRPNIPNRWFSDPTLTSLAKLMKECWYQNPSARLTALRIKATLTKID

binding [9]: binds
B4: ALK2 kinase domain with the GS domain (GS-ALK2^KD, residues 172-499) (domain or fragment, UniProt Q04771 172-499)
chain: TTNVGDSTLADLLDHSCTSGSGSGLPFLVQRTVARQITLLECVGKGRYGEVWRGSWQGENVAVKIFSSRDEKSWFRETELYNTVMLRHENILGFIASDMTSRHSSTQLWLITHYHEMGSLYDYLQLTTLDTVSCLRIVLSIASGLAHLHIEIFGTQGKPAIAHRDLKSKNILVKKNGQCCIADLGLAVMHSQSTNQLDVGNNPRVGTKRYMAPEVLDETIQVDCFDSYKRVDIWAFGLVLWEVARRMVSNGIVEDYKPPFYDVVPNDPSFEDMRKVVCVDQQRPNIPNRWFSDPTLTSLAKLMKECWYQNPSARLTALRIKKTLTKID
